Experimental data: PubChem BioAssay AID1053208 (Peter MacCallum Cancer Centre, 2014)

Purpose: 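Genes whose silencing cuts survival of bone tumour cells only with doxorubicin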 (primary screen)
Cells: mouse osteosarcoma cells, early-passage culture from an engineered mouse model of fibroblastic bone tumour
Reagents: siRNA pool against mouse genes, 40 nM
Duration: about 120 h (48 h before drug, then 72 h with drug)
Conditions: doxorubicin 100 nM for 72 h, roughly 30-40% inhibitory dose
Detection: 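Luminescent ATP signal taken as viability with or without 100 nM doxorubicin for 72 h; mean of two wells set against non-targeting siRNA and turned into robust z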
Reading the numbers: viability z-score with doxorubicin and doxorubicin viability vs non-targeting: higher = more viable cells under doxorubicin; viability z-score without drug: higher = more viable cells with knock-down alone; z-score of drug to no-drug ratio: higher = less drug sensitisation by knock-down
Active means: 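a pool counts as active when its viability z-score with doxorubicin is -2 or below and its z-score without drug lies between -2 and 2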
The deposit covers about 17,000 reagents; shown is an unselected part. Of all reagents, 788 (4.7%) are marked active. 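Calls rest on z-score classes alone; an extra cut-off of viability at most 70% of control was not applied to them.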 Unmarked entries are inactive.

gene	combined z-score class	viability z-score with doxorubicin	viability z-score without drug	z-score of drug to no-drug ratio	doxorubicin viability vs non-targeting
Ece1 (endothelin converting enzyme 1)	no change with or without drug	-0.67	0.17	-0.67	0.88
Klk1b8 (kallikrein 1-related peptidase b8)	no change with or without drug	-0.67	-1.18	0.22	0.88
Hmgcl (3-hydroxy-3-methylglutaryl-Coenzyme A lyase)	no change with or without drug	1.57	-0.17	1.91	1.08
Slc34a3	no change with or without drug	-0.45	-1.18	0.45	0.9
Zfp944 (zinc finger protein 944)	no change with or without drug	0.67	-0.34	1.12	1
Il10ra (interleukin 10 receptor, alpha)	no change with or without drug	-0.34	0.34	-0.45	0.91
Med10 (mediator complex subunit 10)	no change with or without drug	-0.22	-0.17	0	0.92
Col4a5 (collagen, type IV, alpha 5)	no change with or without drug	1.57	1.69	0.56	1.08
Sox17 (SRY (sex determining region Y)-box 17)	low cell count with doxorubicin only (active)	-2.81	-1.01	-2.25	0.69
Aqp2 (aquaporin 2)	no change with or without drug	0.45	0	0.56	0.98
Trim29 (tripartite motif-containing 29)	no change with or without drug	1.35	1.85	0.22	1.06
Stxbp5l (syntaxin binding protein 5-like)	no change with or without drug	0.22	0.34	0.11	0.96
Zfp768 (zinc finger protein 768)	high cell count without drug only	1.12	2.19	-0.22	1.04
Hao1 (hydroxyacid oxidase 1, liver)	no change with or without drug	0.22	-0.34	0.56	0.96
Or8g53 (olfactory receptor family 8 subfamily G member 53)	no change with or without drug	-1.57	-0.84	-1.01	0.8
Vmn1r47 (vomeronasal 1 receptor 47)	no change with or without drug	1.01	0.17	1.01	1.03
Stat1 (signal transducer and activator of transcription 1)	no change with or without drug	0.34	-0.17	0.56	0.97
Mpl (Mpl proto-oncogene, thrombopoietin receptor)	no change with or without drug	-1.12	0.51	-1.35	0.84
Stmn2 (stathmin-like 2)	no change with or without drug	-0.45	-0.67	0.11	0.9
Cntnap4 (contactin associated protein-like 4)	high cell count without drug only	0.11	2.53	-1.35	0.95
Nxph4 (neurexophilin 4)	low cell count with and without drug	-2.92	-3.2	-1.01	0.68
D130079A08Rik (RIKEN cDNA D130079A08 gene)	no change with or without drug	0.9	0	1.01	1.02
Vmn1r49 (vomeronasal 1, receptor 49)	no change with or without drug	0	0.51	-0.22	0.94
Hoxb6 (homeobox B6)	no change with or without drug	-1.24	-1.01	-0.56	0.83
Sesn2 (sestrin 2)	no change with or without drug	0.45	0.67	0.11	0.98
Jup (junction plakoglobin)	no change with or without drug	-1.35	-1.85	0	0.82
Nudc (nudC nuclear distribution protein)	no change with or without drug	0.34	0.17	0.34	0.97
Or4f14d (olfactory receptor family 4 subfamily F member 14D)	no change with or without drug	-0.9	-0.17	-0.79	0.86
Pip4k2c (phosphatidylinositol-5-phosphate 4-kinase, type II, gamma)	no change with or without drug	0	0.84	-0.45	0.94
Or4a47 (olfactory receptor family 4 subfamily A member 47)	no change with or without drug	-0.67	-1.35	0.34	0.88
Cma1 (chymase 1, mast cell)	no change with or without drug	-1.46	0.84	-1.91	0.81
Smarcad1 (SNF2 related chromatin remodeling ATPase with DExD box 1)	no change with or without drug	0	-1.52	1.24	0.94
Defb50 (defensin beta 50)	no change with or without drug	1.35	0.51	1.12	1.06
F11r (F11 receptor)	no change with or without drug	0.45	0.17	0.45	0.98
Klk1 (kallikrein 1)	no change with or without drug	1.35	-0.17	1.69	1.06
Or1j18 (olfactory receptor family 1 subfamily J member 18)	no change with or without drug	0	-1.18	1.01	0.94
Snai2 (snail family zinc finger 2)	low cell count with doxorubicin only (active)	-2.02	-1.18	-1.35	0.76
Eef1a1 (eukaryotic translation elongation factor 1 alpha 1)	low cell count with doxorubicin only (active)	-3.48	-1.85	-2.59	0.63

Only “viability z-score with doxorubicin”, for 11 of the entries above:
Ece1 (endothelin converting enzyme 1): -0.67
Klk1b8 (kallikrein 1-related peptidase b8): -0.67
Hmgcl (3-hydroxy-3-methylglutaryl-Coenzyme A lyase): 1.57
Slc34a3: -0.45
Zfp944 (zinc finger protein 944): 0.67
Il10ra (interleukin 10 receptor, alpha): -0.34
Med10 (mediator complex subunit 10): -0.22
Col4a5 (collagen, type IV, alpha 5): 1.57
Sox17 (SRY (sex determining region Y)-box 17): -2.81 (active)
Aqp2 (aquaporin 2): 0.45
Trim29 (tripartite motif-containing 29): 1.35

The results go on:
gene	combined z-score class	viability z-score with doxorubicin	viability z-score without drug	z-score of drug to no-drug ratio	doxorubicin viability vs non-targeting
4931403M11Rik (RIKEN cDNA 4931403M11 gene)	no change with or without drug	0.34	-1.35	1.46	0.97
Omp (olfactory marker protein)	no change with or without drug	-1.8	-0.84	-1.24	0.78
A430093F15Rik (RIKEN cDNA A430093F15 gene)	no change with or without drug	-1.35	-0.17	-1.24	0.82
Piezo2 (piezo-type mechanosensitive ion channel component 2)	no change with or without drug	0.67	0.67	0.34	1
Bloc1s4	no change with or without drug	-0.56	1.52	-1.35	0.89
Irf3 (interferon regulatory factor 3)	no change with or without drug	0.79	0.34	0.67	1.01
Rnase9 (ribonuclease, RNase A family, 9 (non-active))	low cell count with doxorubicin only (active)	-2.47	-0.51	-2.25	0.72
Or5t15 (olfactory receptor family 5 subfamily T member 15)	low cell count with doxorubicin only (active)	-2.47	0.51	-2.81	0.72
Hpca (hippocalcin)	no change with or without drug	-0.22	1.35	-1.01	0.92
Vmn1r229 (vomeronasal 1 receptor 229)	no change with or without drug	-0.67	-0.17	-0.45	0.88
Nup93 (nucleoporin 93)	no change with or without drug	0.79	0	0.9	1.01
A630038E17Rik (RIKEN cDNA A630038E17 gene)	no change with or without drug	0.11	0.51	-0.11	0.95
Usp11 (ubiquitin specific peptidase 11)	no change with or without drug	-0.9	-0.67	-0.34	0.86
Mms22l (MMS22-like, DNA repair protein)	no change with or without drug	1.12	1.35	0.34	1.04
Gdnf (glial cell line derived neurotrophic factor)	no change with or without drug	-0.11	0.84	-0.56	0.93
Xlr (X-linked lymphocyte-regulated)	no change with or without drug	-1.69	-1.52	-0.67	0.79
Ldlrad3 (low density lipoprotein receptor class A domain containing 3)	no change with or without drug	0	-0.17	0.22	0.94
Igfbp2 (insulin-like growth factor binding protein 2)	no change with or without drug	0.45	-0.51	1.01	0.98
Star (steroidogenic acute regulatory protein)	no change with or without drug	0	0.84	-0.45	0.94
Immt (inner membrane protein, mitochondrial)	no change with or without drug	0.45	-0.51	1.01	0.98
Dapk2 (death-associated protein kinase 2)	no change with or without drug	1.12	0.34	1.01	1.04
Aebp2 (AE binding protein 2)	no change with or without drug	0	-0.67	0.56	0.94
Or10p1 (olfactory receptor family 10 subfamily P member 1)	no change with or without drug	0.9	0.17	0.9	1.02
F12 (coagulation factor XII (Hageman factor))	low cell count without drug only	-1.69	-3.04	0.56	0.79
Cdk6 (cyclin dependent kinase 6)	no change with or without drug	0.67	-0.84	1.46	1
